Experimental findings from paper PMC7819943, “Rice protein-binding microarrays: a tool to detect cis-acting elements near promoter regions in rice” are described below.

Sequences of proteins named here, by UniProt entry; tags and fusion partners are left off.
UniProt Q0JBA9, entry or part of it: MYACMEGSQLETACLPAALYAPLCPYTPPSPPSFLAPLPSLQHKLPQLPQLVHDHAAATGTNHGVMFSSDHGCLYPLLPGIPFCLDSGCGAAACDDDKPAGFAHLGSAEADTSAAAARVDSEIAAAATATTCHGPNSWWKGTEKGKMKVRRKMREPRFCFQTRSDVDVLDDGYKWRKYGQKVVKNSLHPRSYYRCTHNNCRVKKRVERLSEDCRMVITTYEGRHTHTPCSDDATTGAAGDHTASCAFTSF

The other results are listed elsewhere or left out.

The target in this test is OsWRKY34 (Oryza sativa, UniProt Q0JBA9 1-250). As to the kind of experiment: protein-binding microarray (RPBM); PBS, 2% BSA, 51.3 ng/ul salmon testes DNA, 50 uM zinc acetate, 200 nM TF, 25 C, 1 h; high values mean tight binding. To be noted: protein: recombinant; tags: N-terminal polyhistidine and DsRed monomer fusion (pET32a); label: CyDye5-dUTP incorporated in the synthesized complementary strand; 3' TTTTT single-stranded linker to array surface; dsDNA, one strand shown. The procedure, abridged:
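Transcription factors were each fused at the N-terminus to a polyhistidine tag plus DsRed and expressed in E. coli BL21-CodonPlus before Ni–NTA purification. Binding to a double-stranded custom Agilent array was carried out with 200 nM protein at 25 °C for 1 h in PBS, 2% BSA, salmon testes DNA and 50 µM zinc acetate. The binding signal is per-feature fluorescence intensity, in arbitrary units, on an Axon 4000B scanner.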
Turning to “CGCTGTCATTATCCGATTCGATTAACCCCGCGCGATCTCTCGGAGTCACCTAGTGCAG”, the binding signal was 9370 fluorescence intensity (a.u.).

Take “CTGGTGCATGTCCACGTTCAGCGTACTACCTCTCAACTTGCGGAGTCACCTAGTGCAG”: the binding signal was 10100 fluorescence intensity (a.u.). To “TCTGCTCCACCTCCGCGGCGGCCGCCGCCACCCACCTCCACGGAGTCACCTAGTGCAG” belongs 8400 fluorescence intensity (a.u.); to “TTCGGCGACAACCCCTTCGATCTAATTTTTGGATATATTTCGGAGTCACCTAGTGCAG”, 8050 fluorescence intensity (a.u.). To “AATGTTGTTTATTTATCTTGGTTTTCACTTTTCTAGTTTACGGAGTCACCTAGTGCAG” belongs 8960 fluorescence intensity (a.u.); to “CTCATGTCGGTTTTTTCTCCGCCCGGTTAATCATTTCCCACGGAGTCACCTAGTGCAG”, 10400 fluorescence intensity (a.u.). To “TCCTTCATCCTCATGTTTAATTTGCTCGGAGTGTCAAAACCGGAGTCACCTAGTGCAG” belongs 8340 fluorescence intensity (a.u.); to “TCCCTTTATTCGATTGCATCGGTCATTTTTTCTGCCCATGCGGAGTCACCTAGTGCAG”, 8490 fluorescence intensity (a.u.). On to “GTATTGGGGATGGGAGAATGGGAGCTGGGAGGGCGGCCGACGGAGTCACCTAGTGCAG”, for which the binding signal is 12500 fluorescence intensity (a.u.). To “CTTCGCCTTCGCTTCCGCTTCCGATTGCCGTTTCCGCTTTCGGAGTCACCTAGTGCAG” belongs 12800 fluorescence intensity (a.u.).

Turning to “ACTCGCCGCGATCCCCGCCGTTTTATTTTCCAAACCAGCACGGAGTCACCTAGTGCAG”, the binding signal was 8740 fluorescence intensity (a.u.). To “CCTATCATCCTATCCCCGACCTCCCTTGAAACATTTTTTACGGAGTCACCTAGTGCAG” belongs 8110 fluorescence intensity (a.u.).

For the sequence “TTAGTTTTCTCTTAGTTTGTCCATCTTTGTCGGTTTGCGCCGGAGTCACCTAGTGCAG”, the binding signal is 9470 fluorescence intensity (a.u.). Under “TCCGCTGGAGCCCGCCCGACCTCCGCCTCTCCTACCTTCTCGGAGTCACCTAGTGCAG” stands 9240 fluorescence intensity (a.u.); under “AGTGATGTGTGTGCGTATGCGTTTACCATGTAATAAAAAACGGAGTCACCTAGTGCAG”, 8630 fluorescence intensity (a.u.); under “GACTTTTTTTTTTTGTCAAACTTTTTTATATTTGATCAAACGGAGTCACCTAGTGCAG”, 9250 fluorescence intensity (a.u.). Under “GGTCGCACAAAAACACGACCGCGCGCACCACCACCATTTCCGGAGTCACCTAGTGCAG” stands 8160 fluorescence intensity (a.u.). To “GGCCGGCGCCGTTTTCTTTTCCCCTACGCAGCCGTCGCCGCGGAGTCACCTAGTGCAG” belongs 8760 fluorescence intensity (a.u.); to “CACTTCCTTGCCTTCTCATCGAGTTTAATTAGAATCCTTACGGAGTCACCTAGTGCAG”, 8640 fluorescence intensity (a.u.); to “GCACTATTCATGTTTAACGGTTGACGGTTCGTCTTATTTGCGGAGTCACCTAGTGCAG”, 8920 fluorescence intensity (a.u.).

On to “TATATTATATTTTCGTACTGGTTTTATTTTTTATAGGACGCGGAGTCACCTAGTGCAG”, for which the binding signal was 8520 fluorescence intensity (a.u.). Regarding “AAGCTTACACAGTTTCCAACAACTCTTTTCTTTTCAGTTACGGAGTCACCTAGTGCAG”, the binding signal was 8780 fluorescence intensity (a.u.).

With “GTCGCTTGTAGTACTACTCGTTTCAAAGAGCCTGTTTGCTCGGAGTCACCTAGTGCAG”, the binding signal was 10400 fluorescence intensity (a.u.). To “TATTCCGTTTCGCTTATTCAATTCATCTATACTAATATAACGGAGTCACCTAGTGCAG” belongs 8650 fluorescence intensity (a.u.); to “GGTTGCTTGCTTGCTTGGCCATCTGGAACAGTCAGTGTCTCGGAGTCACCTAGTGCAG”, 8360 fluorescence intensity (a.u.); to “TTAAGATATAGGGTTAAGGTTGAGGCGGGGTAGAAGAAAGCGGAGTCACCTAGTGCAG”, 9330 fluorescence intensity (a.u.). Regarding “AATTCTCCCGTCGTCTCCTTCCTTGCGCCAAGAAAGACGACGGAGTCACCTAGTGCAG”, the binding signal was 9610 fluorescence intensity (a.u.). Under “TACGTAACTGTTGGGCAGTGCTACACCTTTTGCTTTGCTTCGGAGTCACCTAGTGCAG” stands 9770 fluorescence intensity (a.u.). Under “GGTTGATGATGTGAGTCCGATTGTATTTTTTTTGTTCACCCGGAGTCACCTAGTGCAG” stands 11000 fluorescence intensity (a.u.). Under “AATATATTATTTTAAATCATTCCTGTTTACATATAGCCATCGGAGTCACCTAGTGCAG” stands 8590 fluorescence intensity (a.u.); under “CACGCTTACTTTTTTTGTGACTAACATGCTTACTTCTCAACGGAGTCACCTAGTGCAG”, 12400 fluorescence intensity (a.u.); under “TATGAAGCTGTCAGCTCTACTTCTTCTTTGGTGATTCTAACGGAGTCACCTAGTGCAG”, 8550 fluorescence intensity (a.u.). For “GTTGGTAGATTGTACTGTATATGTTTTCTCACAAAGTATACGGAGTCACCTAGTGCAG”, the binding signal was 10200 fluorescence intensity (a.u.).

With “AATCTACAAGATATATAACTAGATGTGTGGTGGGTTGAAACGGAGTCACCTAGTGCAG”, the binding signal is 8280 fluorescence intensity (a.u.). To “AAGAGCGGCGGGGAGAAGTTGTCGTACATGACGGTGGTACCGGAGTCACCTAGTGCAG” belongs 8040 fluorescence intensity (a.u.). Under “AGTCTCTTATGACCAGCCGTTACTGGGTGATTGCTTTCTACGGAGTCACCTAGTGCAG” stands 8120 fluorescence intensity (a.u.); under “AACCCAAACGTACGGCTTAATGGACCAATTATTTTTTTGTCGGAGTCACCTAGTGCAG”, 9980 fluorescence intensity (a.u.). Under “GCCGCGCCGGAAAGCTGCCCCATCCACGCAACCCTGCAGCCGGAGTCACCTAGTGCAG” stands 8430 fluorescence intensity (a.u.). With “ATTTTAGCAAATCCGAAACTCATTTGGTTCATAATCTCTTCGGAGTCACCTAGTGCAG”, the binding signal is 8170 fluorescence intensity (a.u.). To “TGCCGTCTTCCTCGTCTCCGGTGACTCTTCGCCGCCGGATCGGAGTCACCTAGTGCAG” belongs 9240 fluorescence intensity (a.u.); to “CTCTCCATTCTGTACTTTTTTTTGCAACCCTCATCGTTTCCGGAGTCACCTAGTGCAG”, 14100 fluorescence intensity (a.u.). Under “TCATTGCTGTCTGGGGTATGGGTGGCCTTGGGAAAAGCACCGGAGTCACCTAGTGCAG” stands 11400 fluorescence intensity (a.u.).
